# According to the supplement of paper PMC7666118:
# Amino acid sequences for entries named in this document (tags omitted). A change or cut given only in a name is not applied to a line headed by its entry.
# UniProt Q8WV22: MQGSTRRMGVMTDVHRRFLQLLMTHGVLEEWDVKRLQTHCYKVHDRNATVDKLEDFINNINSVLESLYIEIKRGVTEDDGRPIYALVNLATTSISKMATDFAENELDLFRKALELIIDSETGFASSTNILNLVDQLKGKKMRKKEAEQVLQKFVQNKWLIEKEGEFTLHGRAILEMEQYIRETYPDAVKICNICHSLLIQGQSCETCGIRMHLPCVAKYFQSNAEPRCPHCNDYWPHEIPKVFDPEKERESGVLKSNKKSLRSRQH
# UniProt P35240: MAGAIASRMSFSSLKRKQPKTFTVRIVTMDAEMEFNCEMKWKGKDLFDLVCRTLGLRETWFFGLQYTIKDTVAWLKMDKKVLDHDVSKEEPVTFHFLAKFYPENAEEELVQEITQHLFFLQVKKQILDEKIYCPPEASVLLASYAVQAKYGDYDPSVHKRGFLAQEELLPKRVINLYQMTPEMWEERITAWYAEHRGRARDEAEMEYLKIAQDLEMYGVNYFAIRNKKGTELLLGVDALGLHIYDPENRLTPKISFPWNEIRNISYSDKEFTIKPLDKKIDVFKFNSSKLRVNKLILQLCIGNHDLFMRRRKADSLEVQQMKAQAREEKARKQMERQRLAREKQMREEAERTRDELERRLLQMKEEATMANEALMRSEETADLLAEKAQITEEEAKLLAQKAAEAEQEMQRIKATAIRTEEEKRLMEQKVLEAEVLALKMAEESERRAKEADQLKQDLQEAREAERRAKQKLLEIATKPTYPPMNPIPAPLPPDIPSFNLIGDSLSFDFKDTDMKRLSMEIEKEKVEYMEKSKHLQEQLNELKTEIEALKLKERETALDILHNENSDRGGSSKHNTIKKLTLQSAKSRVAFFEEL
# UniProt P53384: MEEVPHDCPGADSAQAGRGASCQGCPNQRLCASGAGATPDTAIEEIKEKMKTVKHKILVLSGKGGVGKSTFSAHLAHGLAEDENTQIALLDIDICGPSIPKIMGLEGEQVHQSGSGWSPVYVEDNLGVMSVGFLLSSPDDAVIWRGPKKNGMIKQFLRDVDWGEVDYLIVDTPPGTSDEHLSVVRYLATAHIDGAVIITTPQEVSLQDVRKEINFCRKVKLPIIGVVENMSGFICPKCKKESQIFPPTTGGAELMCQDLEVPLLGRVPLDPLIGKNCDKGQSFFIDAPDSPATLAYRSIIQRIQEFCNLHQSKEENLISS
# UniProt Q9NPE3: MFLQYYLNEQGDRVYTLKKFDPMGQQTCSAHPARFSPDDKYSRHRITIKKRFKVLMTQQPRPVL
# UniProt O43847: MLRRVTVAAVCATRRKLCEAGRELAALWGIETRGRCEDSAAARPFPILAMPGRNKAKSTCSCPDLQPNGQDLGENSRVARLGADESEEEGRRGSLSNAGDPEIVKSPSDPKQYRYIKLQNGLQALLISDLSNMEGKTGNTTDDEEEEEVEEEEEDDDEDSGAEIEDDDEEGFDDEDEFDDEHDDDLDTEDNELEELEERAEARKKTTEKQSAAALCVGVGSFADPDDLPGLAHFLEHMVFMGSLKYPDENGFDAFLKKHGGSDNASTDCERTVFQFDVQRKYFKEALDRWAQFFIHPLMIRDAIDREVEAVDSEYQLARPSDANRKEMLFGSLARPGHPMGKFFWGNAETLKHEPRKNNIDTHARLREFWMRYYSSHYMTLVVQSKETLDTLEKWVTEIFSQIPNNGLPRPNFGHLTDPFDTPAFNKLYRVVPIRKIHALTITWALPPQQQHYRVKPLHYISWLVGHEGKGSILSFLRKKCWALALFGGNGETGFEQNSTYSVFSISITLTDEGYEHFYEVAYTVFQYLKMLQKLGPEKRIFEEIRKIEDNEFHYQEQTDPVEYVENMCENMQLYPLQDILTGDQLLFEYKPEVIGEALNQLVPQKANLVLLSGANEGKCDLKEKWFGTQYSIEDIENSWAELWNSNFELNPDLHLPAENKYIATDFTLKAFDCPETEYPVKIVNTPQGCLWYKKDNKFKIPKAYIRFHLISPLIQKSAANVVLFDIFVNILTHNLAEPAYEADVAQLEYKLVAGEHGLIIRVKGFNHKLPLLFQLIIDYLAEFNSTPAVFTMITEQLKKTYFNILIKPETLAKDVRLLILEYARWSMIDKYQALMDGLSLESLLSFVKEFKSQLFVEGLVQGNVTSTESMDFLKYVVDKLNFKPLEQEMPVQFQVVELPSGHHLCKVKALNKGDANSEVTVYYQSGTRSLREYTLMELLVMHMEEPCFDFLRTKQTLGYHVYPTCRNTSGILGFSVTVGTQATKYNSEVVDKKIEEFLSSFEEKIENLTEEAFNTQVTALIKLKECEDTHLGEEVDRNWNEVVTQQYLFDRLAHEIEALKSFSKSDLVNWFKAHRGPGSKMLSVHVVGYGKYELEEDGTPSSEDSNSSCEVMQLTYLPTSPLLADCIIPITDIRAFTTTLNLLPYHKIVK
# UniProt Q15843, whole entry: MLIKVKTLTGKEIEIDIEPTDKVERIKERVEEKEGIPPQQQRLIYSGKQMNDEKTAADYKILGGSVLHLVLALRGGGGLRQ
# UniProt Q8N543: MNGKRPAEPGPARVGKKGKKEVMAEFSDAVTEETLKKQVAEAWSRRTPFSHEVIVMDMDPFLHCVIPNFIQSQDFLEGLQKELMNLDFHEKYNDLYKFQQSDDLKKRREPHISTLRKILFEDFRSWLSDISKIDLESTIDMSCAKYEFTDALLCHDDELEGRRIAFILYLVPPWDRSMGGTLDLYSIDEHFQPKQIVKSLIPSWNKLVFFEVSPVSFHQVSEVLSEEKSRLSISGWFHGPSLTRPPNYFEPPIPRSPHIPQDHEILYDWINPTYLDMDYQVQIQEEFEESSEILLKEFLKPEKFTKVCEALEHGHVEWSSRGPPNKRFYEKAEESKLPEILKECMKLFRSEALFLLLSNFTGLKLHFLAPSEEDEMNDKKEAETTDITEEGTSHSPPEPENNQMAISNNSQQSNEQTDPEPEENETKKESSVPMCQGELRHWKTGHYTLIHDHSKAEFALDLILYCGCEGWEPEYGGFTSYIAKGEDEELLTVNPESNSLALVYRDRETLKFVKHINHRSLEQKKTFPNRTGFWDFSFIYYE
# UniProt O00221: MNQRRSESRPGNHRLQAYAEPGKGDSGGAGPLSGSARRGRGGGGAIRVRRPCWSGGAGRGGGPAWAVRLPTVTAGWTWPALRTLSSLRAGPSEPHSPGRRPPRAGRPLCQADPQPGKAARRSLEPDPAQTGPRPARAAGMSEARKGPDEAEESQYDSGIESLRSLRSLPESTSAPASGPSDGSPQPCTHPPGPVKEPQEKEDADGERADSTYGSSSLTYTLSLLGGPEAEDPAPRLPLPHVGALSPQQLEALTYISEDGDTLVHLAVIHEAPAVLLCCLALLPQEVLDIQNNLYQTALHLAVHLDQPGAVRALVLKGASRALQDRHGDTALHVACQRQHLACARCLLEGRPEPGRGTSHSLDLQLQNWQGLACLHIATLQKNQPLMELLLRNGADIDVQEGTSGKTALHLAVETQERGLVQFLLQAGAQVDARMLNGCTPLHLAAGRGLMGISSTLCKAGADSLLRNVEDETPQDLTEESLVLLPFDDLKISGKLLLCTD
# UniProt Q9BVL2: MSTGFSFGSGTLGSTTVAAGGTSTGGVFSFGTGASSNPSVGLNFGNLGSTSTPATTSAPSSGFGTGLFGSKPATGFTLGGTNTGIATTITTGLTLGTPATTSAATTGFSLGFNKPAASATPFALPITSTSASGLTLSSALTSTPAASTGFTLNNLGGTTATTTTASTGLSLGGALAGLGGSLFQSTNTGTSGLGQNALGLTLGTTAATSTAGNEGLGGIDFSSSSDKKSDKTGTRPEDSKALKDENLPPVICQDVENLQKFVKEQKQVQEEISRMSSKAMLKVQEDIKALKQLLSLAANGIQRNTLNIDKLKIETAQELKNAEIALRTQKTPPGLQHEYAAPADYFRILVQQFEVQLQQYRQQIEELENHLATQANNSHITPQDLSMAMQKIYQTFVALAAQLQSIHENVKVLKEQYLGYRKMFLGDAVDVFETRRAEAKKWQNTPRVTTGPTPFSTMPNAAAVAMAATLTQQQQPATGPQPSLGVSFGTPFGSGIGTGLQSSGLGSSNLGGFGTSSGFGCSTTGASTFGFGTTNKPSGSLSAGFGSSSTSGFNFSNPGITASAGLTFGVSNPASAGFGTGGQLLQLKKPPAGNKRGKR
# UniProt Q04721: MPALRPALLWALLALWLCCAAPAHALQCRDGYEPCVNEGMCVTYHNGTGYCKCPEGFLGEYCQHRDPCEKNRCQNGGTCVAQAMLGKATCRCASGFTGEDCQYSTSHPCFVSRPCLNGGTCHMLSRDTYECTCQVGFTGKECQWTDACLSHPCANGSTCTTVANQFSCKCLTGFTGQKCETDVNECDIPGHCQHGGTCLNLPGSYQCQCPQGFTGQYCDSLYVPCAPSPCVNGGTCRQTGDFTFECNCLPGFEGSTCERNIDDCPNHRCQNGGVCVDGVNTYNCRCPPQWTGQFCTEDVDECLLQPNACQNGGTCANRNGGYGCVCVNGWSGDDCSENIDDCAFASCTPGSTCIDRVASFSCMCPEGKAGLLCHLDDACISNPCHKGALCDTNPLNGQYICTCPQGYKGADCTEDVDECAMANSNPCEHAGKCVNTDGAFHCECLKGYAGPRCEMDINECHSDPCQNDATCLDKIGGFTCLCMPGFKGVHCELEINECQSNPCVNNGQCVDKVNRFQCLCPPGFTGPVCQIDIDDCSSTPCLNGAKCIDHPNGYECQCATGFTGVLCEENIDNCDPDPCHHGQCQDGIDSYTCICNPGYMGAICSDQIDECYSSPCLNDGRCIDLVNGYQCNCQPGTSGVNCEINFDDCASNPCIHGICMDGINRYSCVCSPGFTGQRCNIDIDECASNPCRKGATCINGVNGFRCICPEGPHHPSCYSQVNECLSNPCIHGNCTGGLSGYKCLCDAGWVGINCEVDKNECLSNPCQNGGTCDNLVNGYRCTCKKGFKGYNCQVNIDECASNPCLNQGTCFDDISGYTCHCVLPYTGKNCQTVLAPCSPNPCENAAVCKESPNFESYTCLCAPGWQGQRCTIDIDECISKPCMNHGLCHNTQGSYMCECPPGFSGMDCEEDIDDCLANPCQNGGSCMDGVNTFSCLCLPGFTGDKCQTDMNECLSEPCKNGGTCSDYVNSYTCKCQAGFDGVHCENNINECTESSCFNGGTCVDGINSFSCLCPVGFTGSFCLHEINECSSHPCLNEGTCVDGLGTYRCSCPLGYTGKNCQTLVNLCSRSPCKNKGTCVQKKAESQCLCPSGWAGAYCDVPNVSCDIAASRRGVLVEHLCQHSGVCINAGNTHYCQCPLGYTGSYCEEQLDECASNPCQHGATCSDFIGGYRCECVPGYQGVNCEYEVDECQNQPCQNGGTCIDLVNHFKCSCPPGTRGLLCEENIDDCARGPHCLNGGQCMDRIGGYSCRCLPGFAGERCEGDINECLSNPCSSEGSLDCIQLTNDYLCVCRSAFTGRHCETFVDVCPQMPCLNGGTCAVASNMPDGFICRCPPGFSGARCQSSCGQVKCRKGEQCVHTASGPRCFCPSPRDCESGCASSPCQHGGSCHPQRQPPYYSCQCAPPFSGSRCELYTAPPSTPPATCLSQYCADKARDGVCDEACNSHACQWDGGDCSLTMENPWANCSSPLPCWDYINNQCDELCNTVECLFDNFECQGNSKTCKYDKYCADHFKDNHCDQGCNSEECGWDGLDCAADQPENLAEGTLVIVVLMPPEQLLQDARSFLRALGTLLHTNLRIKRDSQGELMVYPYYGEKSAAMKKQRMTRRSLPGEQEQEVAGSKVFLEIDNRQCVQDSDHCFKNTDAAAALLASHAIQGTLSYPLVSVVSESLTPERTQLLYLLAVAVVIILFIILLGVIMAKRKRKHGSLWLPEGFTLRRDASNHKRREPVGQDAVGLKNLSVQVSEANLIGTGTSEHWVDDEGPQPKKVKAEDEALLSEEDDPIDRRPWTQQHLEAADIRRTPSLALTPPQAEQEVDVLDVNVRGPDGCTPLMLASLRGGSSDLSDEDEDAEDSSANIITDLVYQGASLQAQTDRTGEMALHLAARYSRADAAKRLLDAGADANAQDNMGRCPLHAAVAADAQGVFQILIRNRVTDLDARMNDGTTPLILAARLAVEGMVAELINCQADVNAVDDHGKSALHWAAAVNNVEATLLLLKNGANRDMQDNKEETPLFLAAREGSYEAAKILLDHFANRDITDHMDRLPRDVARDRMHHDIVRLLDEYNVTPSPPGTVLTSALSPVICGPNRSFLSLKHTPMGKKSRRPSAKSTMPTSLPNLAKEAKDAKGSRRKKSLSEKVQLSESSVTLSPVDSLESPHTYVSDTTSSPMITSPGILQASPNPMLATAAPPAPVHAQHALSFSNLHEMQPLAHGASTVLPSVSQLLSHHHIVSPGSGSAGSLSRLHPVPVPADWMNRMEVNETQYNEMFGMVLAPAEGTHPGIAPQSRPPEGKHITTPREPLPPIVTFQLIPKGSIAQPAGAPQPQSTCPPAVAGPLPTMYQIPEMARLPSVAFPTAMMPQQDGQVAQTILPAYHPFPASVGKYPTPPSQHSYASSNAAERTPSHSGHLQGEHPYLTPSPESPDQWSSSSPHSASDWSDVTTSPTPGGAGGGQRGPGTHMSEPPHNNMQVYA
# The list shows a part of the results.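 The calls were made as follows: active = dose-dependent thermal stabilisation significant by F-test of dose-response against flat model at 10% FDR; inactive = not significant.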
# Compound: Nc1nc2c(ncn2[C@@H]2O[C@H](COP(=O)(O)OP(=O)(O)OP(=O)(O)O)[C@@H](O)[C@H]2O)c(=O)[nH]1
# Assay: dose-dependent thermal stabilisation call (2D-TPP, DLPTP, 10% FDR) (binary (1 = stabilised)); higher = stabilised by the compound
# Settings: system: Jurkat gel-filtered lysate; concentration range 1-500 µM
row,Target,dose-dependent thermal stabilisation call
1,NFATC3 (UniProt Q12968),inactive: 0
2,POLR1D (UniProt P0DPB6),inactive: 0
3,NSMCE1 (UniProt Q8WV22),inactive: 0
4,PANK2 (UniProt Q9BZ23),active: 1
5,NF2 (UniProt P35240),inactive: 0
6,OAT (UniProt P04181),inactive: 0
7,NAA20 (UniProt P61599),inactive: 0
8,NISCH (UniProt Q9Y2I1),active: 1
9,NUBP1 (UniProt P53384),inactive: 0
10,PABPC4 (UniProt Q13310),active: 1
11,NAPA (UniProt P54920),inactive: 0
12,NUDC (UniProt Q9Y266),inactive: 0
13,NUP37 (UniProt Q8NFH4),inactive: 0
14,NADK2 (UniProt Q4G0N4),active: 1
15,NFATC2IP (UniProt Q8NCF5),inactive: 0
16,OTUD6B (UniProt Q8N6M0),inactive: 0
17,NACA (UniProt E9PAV3),inactive: 0
18,PALM (UniProt O75781),inactive: 0

row,Target,dose-dependent thermal stabilisation call
1,NOP10 (UniProt Q9NPE3),inactive: 0
2,OIP5 (UniProt O43482),inactive: 0
3,NRDC (UniProt O43847),inactive: 0
4,PAPSS1 (UniProt O43252),inactive: 0
5,NRF1 (UniProt Q16656),inactive: 0
6,NXN (UniProt Q6DKJ4),inactive: 0
7,NT5C2 (UniProt P49902),inactive: 0
8,NEDD8 (UniProt Q15843),inactive: 0
9,OGFOD1 (UniProt Q8N543),inactive: 0
10,NFKBIE (UniProt O00221),inactive: 0
11,NAF1 (UniProt Q96HR8),inactive: 0
12,OTUD4 (UniProt Q01804),inactive: 0
13,NLE1 (UniProt Q9NVX2),inactive: 0
14,PAFAH1B3 (UniProt Q15102),inactive: 0
15,NUP58 (UniProt Q9BVL2),inactive: 0
16,OSBPL2 (UniProt Q9H1P3),active: 1
17,NOTCH2 (UniProt Q04721),inactive: 0
18,NSMCE3 (UniProt Q96MG7),inactive: 0

# Not a retest: an excerpt of the list.
row,Target,dose-dependent thermal stabilisation call
8,NEDD8 (UniProt Q15843),inactive: 0
9,OGFOD1 (UniProt Q8N543),inactive: 0
